Assay: Stabilization of AtHNL at low pH (half life)

B1: AtHNL: hydroxynitrile lyase from Arabidopsis thaliana, polypeptide of the invention, SEQ ID NO: 1 (protein, listed as Arabidopsis thaliana)
chain: MERKHHFVLVHNAYHGAWIWYKLKPLLESAGHRVTAVELAASGIDPRPIQAVETVDEYSKPLIETLKSLPENEEVILVGFSFGGINIALAADIFPAKIKVLVFLNAFLPDTTHVPSHVLDKYMEMPGGLGDCEFSSHETRNGTMSLLKMGPKFMKARLYQNCPIEDYELAKMLHRQGSFFTEDLSKKEKFSEEGYGSVQRVYVMSSEDKAIPCDFIRWMIDNFNVSKVYEIDGGDHMVMLSKPQKLFDSLSAIATDYM
- half life (pH of 5, 200 mg/ml of sorbitol): more than 72 hours
- half life (pH of 5, without additive): 3 h
